In all, about 400,000 compounds went through this assay and about 13,000 (3.2%) were called active. Inconclusive results, whose numbers are uncertain, are shown with a selection of clear calls. Calls come from the whole dose curve; as a rule, active = well fitted cell-killing curve with a large enough effect; inconclusive = small, poorly fitted or top-dose-only effect, or effect the other way; inactive = flat fitted curve, though single readings scatter. A potency beside an inconclusive call is a rough fit, not a confirmed value.
Experiment: qHTS assay for MDR1-selective chemotherapeutics: Primary screen using the drug-selected MDR subline cells KB-V1; note: nearly all actives have a fitted effect of over 60% in size
Conditions: KB-V1 MDR cells viability, CellTiter-Glo, 72 h; activity change, negative = cytotoxicity: at 46.1 µM (top of the series)
Summary of the method: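 KB-V1 MDR subline cells in DMEM (phenol-red free, 10% FBS) exposed to compounds in qHTS concentration series for 72 h at 37 degrees C. Viability read by CellTiter-Glo luminescence; concentration-effect curves fitted after normalization and correction.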
% is set by controls: 0 for no effect and ±100 for the full control effect; potency is the fitted concentration of half-maximal effect.

| SMILES | Potency | activity change, negative = cytotoxicity |
| --- | --- | --- |
| Cc1ccccc1NC1=C/C(=N\S(=O)(=O)c2ccc(C(=O)O)cc2)c2ccccc2C1=O | inconclusive: 25.9 µM [cytotoxic, partial curve, poor fit] |  |
| O=[N+]([O-])c1ccc(N=Nc2c(O)[nH]c3ccc(F)cc23)cc1 | inconclusive: 29.1 µM [cytotoxic, single point] |  |
| C[C@]12C=CC(=O)C=C1CC[C@@H]1[C@@H]2C(=O)C[C@@]2(C)[C@H]1CC[C@]2(O)C(=O)COC(=O)CCC(=O)O | inconclusive: 7.31 µM [rising, partial curve] |  |
| CCOc1ccc(CNc2ccc3c(c2)nc(C)n3C)cc1 | inconclusive: 3.26 µM [cytotoxic, partial curve, poor fit] |  |
| Cc1ccccc1NC(=O)CCC(=O)N/N=C/c1cc([N+](=O)[O-])ccc1O | active: 20.6 µM |  |
| O=C(Nc1ccc(N2CCCC2)cc1)c1cc(Br)ccc1Cl | inconclusive: 29.1 µM [cytotoxic, single point] |  |
| Cc1ccc(S(=O)(=O)N2CCC(C(=O)NNC(=O)c3ccccc3O)CC2)cc1C | inconclusive: 16.4 µM [cytotoxic, partial curve] |  |
| Cc1cc(C)n(-c2nc3ccccc3nc2Nc2cccc(C(=O)NCCc3ccccc3)c2)n1 | inconclusive: 0.0065 µM [cytotoxic, full curve, poor fit] |  |
| NC(N)=Nc1nc(-c2ccccc2)c2cc(Cl)ccc2n1 |  | inactive: 1.99% |
| COc1ccc(C)cc1NC(=O)CN1C(=O)C(=O)N(C2CCCC2)C1=O | inconclusive: 23.1 µM [rising, partial curve] |  |
| CC(C)(C)N(NC(=O)Nc1ccccc1)C(=O)c1ccccc1Cl | inconclusive: 23.1 µM [cytotoxic, single point] |  |
| Cc1nc2sc(C(c3ccc(F)cc3)N3CCOCC3)c(O)n2n1 (configuration not stated) | inconclusive: 18.4 µM [rising, partial curve, poor fit] |  |
| CCN1CCOC(=O)C1CC(=O)Nc1cccc(OC)c1 (configuration not stated) | inconclusive: 16.4 µM [rising, single point] |  |
| FC(F)(F)c1ccccc1NC(=S)NN=C1CCCCCC1 | inconclusive: 32.6 µM [cytotoxic, single point] |  |
| Cn1cc(S(=O)(=O)N2CCCCCC2)cc1C(=O)NCc1ccc(Cl)cc1 | inconclusive: 13 µM [cytotoxic, partial curve, poor fit] |  |
| CC1=C(C(=O)Nc2ccccc2)C(c2cccc(O)c2)n2nc(-c3ccccc3Cl)nc2N1 (configuration not stated) | inconclusive: 0.0073 µM [cytotoxic, full curve] |  |
| CC(C)(C)N(Cc1ccccc1)C(=O)c1cc2ccccc2o1 |  | inactive: 18.2% |

Taken from the listing (2 entries):

| SMILES | Potency | activity change, negative = cytotoxicity |
| --- | --- | --- |
| Cc1ccc(S(=O)(=O)N2CCC(C(=O)NNC(=O)c3ccccc3O)CC2)cc1C | inconclusive: 16.4 µM [cytotoxic, partial curve] |  |
| Cc1cc(C)n(-c2nc3ccccc3nc2Nc2cccc(C(=O)NCCc3ccccc3)c2)n1 | inconclusive: 0.0065 µM [cytotoxic, full curve, poor fit] |  |
